These are yes or no findings as the source states them, for the method shown. For part of these data: A result given as binding can be weak or reduced; the word gives no strength. Where a sequence is shown, tags or fusion partners need not be part of it.

This passage reports binding results from publication PMC11461026.

Holding throughout (assay): two-hybrid; AH109 yeast co-transformed with Gal4-DB effector baits (pDEST-DB) and Gal4-AD Arabidopsis preys (pDEST22); growth on -LWH against -LW plates, 30 C, three days; pairwise screen and dilution series
The target in test [1] is Pseudomonas syringae pv. tomato DC3000 effector HopO1, Gal4BD-tagged (Pseudomonas syringae pv. tomato DC3000).
For test [2], the target named is Pseudomonas syringae pv. tomato DC3000 effector AvrPto, Gal4BD-tagged (Pseudomonas syringae pv. tomato DC3000).
For test [3], the target named is Pseudomonas syringae pv. tomato DC3000 effector HopM1, Gal4BD-tagged (Pseudomonas syringae pv. tomato DC3000).

B1: CONSTITUTIVE ACTIVE DEFENSE 1 (CAD1), Gal4AD-tagged (protein, UniProt Q9C7N2 1-561)
chain: MENRKGGNFSVPSSEALTTTLRNAIQALGRGFDVTSDVRLLYCKGAPGSRLVRIEEGQNRDLELSHGFLLPNVPADIDCSRGNSGTQRISVCSFHEMAEEFNVRSGVKGNIPLGCFNAMFNYTGSWQVDAASTKSLALVGYFIPLYDVKLAKLTLVLHNEIRRAVPSSWDPASLASFIENYGTHIVTSVTIGGRDVVYIRQHQSSPLPVSEIENYVNDMIKHRFHEAESQSITGPLKYKDKDITVIFRRRGGDDLEQSHARWAETVPAAPDIINMTFTPIVSLLEGVPGLRHLTRAIELYLEYKPPIEDLQYFLDYQIARAWAPEQSNLQRKEPVCSSLQFSLMGPKLFISADQVTVGRKPVTGLRLSLEGSKQNRLSIHLQHLVSLPKILQPHWDSHVPIGAPKWQGPEEQDSRWFEPIKWKNFSHVSTSPIEHTETHIGDLSGVHIVTGAQLGVWDFGSKNVLHLKLLFSKVPGCTIRRSVWDHTPVASSGRLEPGGPSTSSSTEEVSGQSGKLAKIVDSSEMLKGPQDLPGHWLVTGAKLGVEKGKIVLRVKYSLLNY
As for B1, the binding entry in test [1], in test [2] and in test [3] was “no binding” in each case.

B2: NECROTIC SPOTTED LESIONS 1 (NSL1), Gal4AD-tagged (protein, UniProt Q9SGN6 1-612)
chain: MAFNNFTRLDAHSAAEKAVSVIGLGYDLCSDVRFSACKTTPDGSRLVEIDPTRNRDLIFPGGIVVNNVSSSIKCDKGERTRLRSDILSFNQMSEKFNQDMCLSGKIPSGMFNNMFAFSKCWPKDASSVKTLAYDGWFISLYSVEIVRKQLTLRDEVKREVPSSWDSAALAGFIEKYGTHVVVGVTMGGKDVIHVKQMRKSNHEPEEIQKMLKHWGDERFCVDPVESKSPASVYSGKPKEENLLQWGLQPFGTSVSSAVVMHTKNEEIMRVCIRRGGVDLGQSHERWLSTVSQAPNVISMCFVPITSLLSGLPGTGFLSHAVNLYLRYKPPIEELHQFLEFQLPRQWAPVYGDLPLGLRRSKQSSPSLQFSLMGPKLYVNTSKVDSGERPVTGLRFFLEGKKGNHLAIHLQHLSACPPSLHLSHDDTYEPIEEPVEKGYYVPVKWGIFSHVCTYPVQYNGARSDDTASIVTKAWLEVKGMGMRKVLFLRLGFSLDASAVTRKSCWDNLSTNSRKSGVFSMISTRLSTGLSPNPATTKPQSKIDINSAVYPRGPSPPVKPKLLSLVDTKEVMRGPEEQPGYWVVTGAKLCVEAGKISIKAKYSLLTVISEDSLV
As for B2, the binding result is reported as “no binding” in test [1], “no binding” in test [2] and “binds” in test [3].
